The text below walks through data of the supplement of paper PMC10849652.

Protein sequences, listed by entry. Tags and fused reporters are not part of them. Lines headed by an entry give the natural chain unless they say otherwise; changes in a name come on top.
UniProt Q9NXF8: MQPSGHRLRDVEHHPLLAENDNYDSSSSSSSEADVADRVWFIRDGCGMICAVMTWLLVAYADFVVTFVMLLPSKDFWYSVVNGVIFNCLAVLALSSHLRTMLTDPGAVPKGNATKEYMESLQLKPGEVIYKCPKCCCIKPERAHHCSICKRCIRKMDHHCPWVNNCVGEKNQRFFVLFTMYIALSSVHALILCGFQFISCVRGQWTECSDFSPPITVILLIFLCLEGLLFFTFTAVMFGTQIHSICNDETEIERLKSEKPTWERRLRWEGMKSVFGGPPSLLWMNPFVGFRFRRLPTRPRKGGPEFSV
UniProt Q01831: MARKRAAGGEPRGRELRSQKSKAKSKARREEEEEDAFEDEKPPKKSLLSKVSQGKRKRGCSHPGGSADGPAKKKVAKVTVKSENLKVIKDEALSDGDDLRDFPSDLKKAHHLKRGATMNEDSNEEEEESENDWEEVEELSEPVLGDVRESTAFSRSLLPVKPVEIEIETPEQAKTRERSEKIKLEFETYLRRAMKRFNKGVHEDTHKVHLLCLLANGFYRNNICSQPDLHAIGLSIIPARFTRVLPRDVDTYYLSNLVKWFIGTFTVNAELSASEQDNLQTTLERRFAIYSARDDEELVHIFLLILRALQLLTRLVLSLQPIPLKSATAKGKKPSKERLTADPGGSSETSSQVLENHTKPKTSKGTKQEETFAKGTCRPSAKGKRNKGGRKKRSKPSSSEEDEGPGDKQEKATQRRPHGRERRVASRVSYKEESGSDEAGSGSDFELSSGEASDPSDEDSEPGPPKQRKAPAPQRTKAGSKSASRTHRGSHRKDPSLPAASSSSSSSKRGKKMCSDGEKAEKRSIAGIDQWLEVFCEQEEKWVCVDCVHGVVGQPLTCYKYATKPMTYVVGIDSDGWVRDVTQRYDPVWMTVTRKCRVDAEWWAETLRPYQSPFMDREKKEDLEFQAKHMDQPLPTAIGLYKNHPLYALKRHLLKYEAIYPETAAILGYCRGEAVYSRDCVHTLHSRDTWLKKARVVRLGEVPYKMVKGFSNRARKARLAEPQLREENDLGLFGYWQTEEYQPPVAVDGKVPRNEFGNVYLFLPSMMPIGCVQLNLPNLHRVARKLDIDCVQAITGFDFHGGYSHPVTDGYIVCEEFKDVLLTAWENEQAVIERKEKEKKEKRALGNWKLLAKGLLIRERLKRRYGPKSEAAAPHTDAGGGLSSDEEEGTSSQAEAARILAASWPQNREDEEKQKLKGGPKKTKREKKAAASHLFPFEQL
UniProt Q96GY0: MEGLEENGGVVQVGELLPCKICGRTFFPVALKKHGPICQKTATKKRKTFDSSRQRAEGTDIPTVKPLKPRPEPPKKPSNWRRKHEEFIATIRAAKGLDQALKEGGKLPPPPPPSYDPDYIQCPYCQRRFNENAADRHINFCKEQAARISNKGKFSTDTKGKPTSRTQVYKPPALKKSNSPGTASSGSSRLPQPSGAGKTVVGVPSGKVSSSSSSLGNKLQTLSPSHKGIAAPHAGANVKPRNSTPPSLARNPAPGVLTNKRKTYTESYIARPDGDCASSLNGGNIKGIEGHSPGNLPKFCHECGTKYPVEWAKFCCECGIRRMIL
UniProt O95070: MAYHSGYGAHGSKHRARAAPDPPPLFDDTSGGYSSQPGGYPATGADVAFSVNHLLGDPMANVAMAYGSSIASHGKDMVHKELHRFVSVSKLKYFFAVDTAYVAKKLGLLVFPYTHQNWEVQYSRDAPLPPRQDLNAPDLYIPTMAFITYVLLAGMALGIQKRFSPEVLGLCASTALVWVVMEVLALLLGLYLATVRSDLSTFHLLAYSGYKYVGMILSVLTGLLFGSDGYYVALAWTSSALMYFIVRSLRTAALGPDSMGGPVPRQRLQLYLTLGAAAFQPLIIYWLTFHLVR
UniProt O75152: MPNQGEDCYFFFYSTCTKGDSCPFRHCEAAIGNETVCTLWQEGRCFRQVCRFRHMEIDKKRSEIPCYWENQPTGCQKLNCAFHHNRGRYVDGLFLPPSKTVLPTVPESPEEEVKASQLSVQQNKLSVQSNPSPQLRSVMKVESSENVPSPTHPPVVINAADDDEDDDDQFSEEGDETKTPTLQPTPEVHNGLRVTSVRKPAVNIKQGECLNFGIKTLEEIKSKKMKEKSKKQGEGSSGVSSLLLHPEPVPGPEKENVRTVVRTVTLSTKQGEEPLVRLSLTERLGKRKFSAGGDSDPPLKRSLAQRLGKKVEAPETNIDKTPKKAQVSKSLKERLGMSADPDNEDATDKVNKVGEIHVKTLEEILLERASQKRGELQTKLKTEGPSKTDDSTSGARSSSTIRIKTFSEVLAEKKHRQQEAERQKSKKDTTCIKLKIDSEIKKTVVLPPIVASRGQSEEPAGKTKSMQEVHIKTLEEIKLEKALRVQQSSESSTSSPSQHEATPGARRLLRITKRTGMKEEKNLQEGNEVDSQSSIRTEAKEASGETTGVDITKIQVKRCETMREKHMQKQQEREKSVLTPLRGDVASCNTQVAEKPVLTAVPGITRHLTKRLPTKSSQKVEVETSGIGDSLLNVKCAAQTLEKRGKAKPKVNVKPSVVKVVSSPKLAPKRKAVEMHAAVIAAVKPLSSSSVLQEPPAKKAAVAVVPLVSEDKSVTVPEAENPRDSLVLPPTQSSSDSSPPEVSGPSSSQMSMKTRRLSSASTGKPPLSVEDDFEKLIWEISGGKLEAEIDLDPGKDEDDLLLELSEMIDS
UniProt Q8IZH2: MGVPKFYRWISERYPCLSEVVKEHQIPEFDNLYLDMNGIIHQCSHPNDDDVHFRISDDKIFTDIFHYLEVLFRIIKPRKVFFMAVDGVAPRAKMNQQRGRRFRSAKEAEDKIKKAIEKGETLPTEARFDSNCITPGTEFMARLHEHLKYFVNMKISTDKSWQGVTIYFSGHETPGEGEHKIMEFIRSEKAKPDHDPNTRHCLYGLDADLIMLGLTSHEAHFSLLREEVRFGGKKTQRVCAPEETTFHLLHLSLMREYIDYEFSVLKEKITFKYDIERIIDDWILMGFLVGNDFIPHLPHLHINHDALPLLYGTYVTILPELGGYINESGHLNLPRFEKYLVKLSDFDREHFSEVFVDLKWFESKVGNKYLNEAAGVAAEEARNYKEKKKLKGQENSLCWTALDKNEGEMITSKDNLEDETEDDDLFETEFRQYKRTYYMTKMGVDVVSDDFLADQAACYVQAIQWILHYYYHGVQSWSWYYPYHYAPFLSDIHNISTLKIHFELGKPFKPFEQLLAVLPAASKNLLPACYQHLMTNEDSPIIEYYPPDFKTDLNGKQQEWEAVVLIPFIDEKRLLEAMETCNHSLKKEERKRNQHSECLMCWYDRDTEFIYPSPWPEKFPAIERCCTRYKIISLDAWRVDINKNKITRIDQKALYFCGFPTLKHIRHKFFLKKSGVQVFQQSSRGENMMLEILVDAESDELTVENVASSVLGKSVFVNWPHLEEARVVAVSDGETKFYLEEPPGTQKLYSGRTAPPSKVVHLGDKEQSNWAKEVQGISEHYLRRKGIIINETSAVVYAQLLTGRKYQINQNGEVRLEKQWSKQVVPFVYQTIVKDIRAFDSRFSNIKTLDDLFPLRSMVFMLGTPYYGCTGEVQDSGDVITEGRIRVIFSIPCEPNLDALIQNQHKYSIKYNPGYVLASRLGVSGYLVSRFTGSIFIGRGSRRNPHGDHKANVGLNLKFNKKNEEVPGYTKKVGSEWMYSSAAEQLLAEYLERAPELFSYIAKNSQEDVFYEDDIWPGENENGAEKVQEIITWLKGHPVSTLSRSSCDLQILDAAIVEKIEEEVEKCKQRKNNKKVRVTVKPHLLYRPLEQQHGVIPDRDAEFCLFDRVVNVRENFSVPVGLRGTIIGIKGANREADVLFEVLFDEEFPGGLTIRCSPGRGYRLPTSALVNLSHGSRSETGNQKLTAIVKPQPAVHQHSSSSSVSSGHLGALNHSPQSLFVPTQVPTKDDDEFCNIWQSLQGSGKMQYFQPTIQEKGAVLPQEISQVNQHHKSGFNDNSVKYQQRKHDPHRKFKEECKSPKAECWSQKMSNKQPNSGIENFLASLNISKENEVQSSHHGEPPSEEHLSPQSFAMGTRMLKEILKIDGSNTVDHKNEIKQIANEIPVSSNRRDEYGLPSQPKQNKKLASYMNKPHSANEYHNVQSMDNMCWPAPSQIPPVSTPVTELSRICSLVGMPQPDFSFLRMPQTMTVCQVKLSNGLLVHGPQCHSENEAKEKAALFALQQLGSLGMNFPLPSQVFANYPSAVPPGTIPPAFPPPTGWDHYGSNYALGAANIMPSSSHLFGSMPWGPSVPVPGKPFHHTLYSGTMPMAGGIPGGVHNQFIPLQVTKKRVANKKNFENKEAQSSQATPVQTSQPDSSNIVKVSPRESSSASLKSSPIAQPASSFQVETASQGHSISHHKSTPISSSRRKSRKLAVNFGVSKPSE
UniProt Q9HCC9: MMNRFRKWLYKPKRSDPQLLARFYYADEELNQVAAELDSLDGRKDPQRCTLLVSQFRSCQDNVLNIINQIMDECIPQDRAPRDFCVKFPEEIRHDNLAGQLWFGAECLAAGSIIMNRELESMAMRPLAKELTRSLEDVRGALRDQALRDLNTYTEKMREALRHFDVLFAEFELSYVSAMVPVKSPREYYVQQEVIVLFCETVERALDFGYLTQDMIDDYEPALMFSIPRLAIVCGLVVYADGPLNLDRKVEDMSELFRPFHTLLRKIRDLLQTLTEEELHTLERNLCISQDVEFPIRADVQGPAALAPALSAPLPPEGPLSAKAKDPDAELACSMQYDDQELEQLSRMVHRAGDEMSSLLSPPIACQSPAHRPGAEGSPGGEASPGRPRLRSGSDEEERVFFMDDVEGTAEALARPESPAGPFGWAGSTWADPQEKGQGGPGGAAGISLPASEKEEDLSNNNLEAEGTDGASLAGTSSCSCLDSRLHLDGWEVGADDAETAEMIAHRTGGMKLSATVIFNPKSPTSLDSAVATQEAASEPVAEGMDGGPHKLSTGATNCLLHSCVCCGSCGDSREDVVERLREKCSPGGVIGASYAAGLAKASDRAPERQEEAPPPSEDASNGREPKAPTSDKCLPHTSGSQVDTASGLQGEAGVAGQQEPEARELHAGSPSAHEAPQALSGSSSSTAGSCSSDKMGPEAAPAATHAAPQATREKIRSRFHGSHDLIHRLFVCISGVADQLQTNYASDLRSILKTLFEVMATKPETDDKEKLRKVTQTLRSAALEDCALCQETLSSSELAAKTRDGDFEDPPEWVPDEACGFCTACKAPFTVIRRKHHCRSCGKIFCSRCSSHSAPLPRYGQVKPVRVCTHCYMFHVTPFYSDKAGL
UniProt O43543: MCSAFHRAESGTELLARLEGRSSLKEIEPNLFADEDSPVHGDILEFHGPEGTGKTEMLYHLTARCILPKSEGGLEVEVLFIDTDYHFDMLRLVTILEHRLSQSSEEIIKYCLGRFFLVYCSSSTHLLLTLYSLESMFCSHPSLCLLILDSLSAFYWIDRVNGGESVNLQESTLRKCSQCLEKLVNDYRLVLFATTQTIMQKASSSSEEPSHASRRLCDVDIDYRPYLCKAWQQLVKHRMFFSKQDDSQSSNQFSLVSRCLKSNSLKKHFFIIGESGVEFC
UniProt Q13105: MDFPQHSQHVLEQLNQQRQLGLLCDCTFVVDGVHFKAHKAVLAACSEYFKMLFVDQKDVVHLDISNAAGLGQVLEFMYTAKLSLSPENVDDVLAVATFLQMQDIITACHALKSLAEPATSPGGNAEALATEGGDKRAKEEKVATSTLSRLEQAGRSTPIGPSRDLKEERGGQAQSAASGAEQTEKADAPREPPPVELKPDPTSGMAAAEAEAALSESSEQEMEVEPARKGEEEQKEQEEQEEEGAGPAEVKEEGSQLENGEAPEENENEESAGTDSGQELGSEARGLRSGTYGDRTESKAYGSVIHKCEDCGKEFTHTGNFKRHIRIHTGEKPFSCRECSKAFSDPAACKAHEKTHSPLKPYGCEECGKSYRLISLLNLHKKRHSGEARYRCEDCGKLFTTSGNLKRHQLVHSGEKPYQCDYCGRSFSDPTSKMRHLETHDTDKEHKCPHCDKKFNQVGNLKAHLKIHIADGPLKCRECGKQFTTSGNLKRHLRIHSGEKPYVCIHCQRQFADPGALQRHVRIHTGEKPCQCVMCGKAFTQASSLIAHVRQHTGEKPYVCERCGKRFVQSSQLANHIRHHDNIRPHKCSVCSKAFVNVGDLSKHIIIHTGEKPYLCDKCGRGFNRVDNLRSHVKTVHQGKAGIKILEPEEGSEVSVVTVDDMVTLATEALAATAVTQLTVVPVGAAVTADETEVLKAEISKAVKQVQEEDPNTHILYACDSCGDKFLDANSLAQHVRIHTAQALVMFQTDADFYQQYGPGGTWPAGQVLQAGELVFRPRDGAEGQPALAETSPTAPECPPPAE
UniProt P58557: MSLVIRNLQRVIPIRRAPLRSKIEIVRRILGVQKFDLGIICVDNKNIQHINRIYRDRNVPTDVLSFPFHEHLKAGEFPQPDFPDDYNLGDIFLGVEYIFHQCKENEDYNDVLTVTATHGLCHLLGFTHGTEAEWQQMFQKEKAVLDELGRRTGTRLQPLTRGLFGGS

This is one part of the list.

Compound in the first assay: CCCS(=O)(=O)Nc1ccc(F)c(C(=O)c2c[nH]c3ncc(-c4ccc(Cl)cc4)cc23)c1F [vemurafenib]
The assay is described as follows: log2 fold change, soluble protein after heating vs DMSO (PISA); higher = thermal stabilisation; K562 cells, 10 uM, 30 min; active = over 0.2 and 3.5 SD of the protein, either way, in both replicates (recomputed). In outline: (§1)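 K562 cells (2×10^6 cells/mL) were treated with 10 μM compound for 30 min, and aliquots were heated for 3 min over 48°C-58°C. Pooled aliquots were extracted in PBS with 0.5% NP-40 at 4°C, and the supernatant after 21,000xg for 90 min was measured by TMTpro 16plex LC-MS/MS with channel sums equalised. Reported thermal stability, relative to control samples and from duplicates, is a log2 fold change.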
As to ZFYVE21 isoform 2 (UniProt Q9BQ24), the log2 fold change was inactive: -0.105.
Same read-out and setting: the result for XPA (UniProt P23025) reads inactive: 0.308; that for ZBTB3 (UniProt Q9H5J0), inactive: 0.197; that for ZDHHC7 isoform 2 (UniProt Q9NXF8), inactive: -0.016.
Same read-out and setting: to ZKSCAN4 (UniProt Q969J2) belongs inactive: 0.028; to XPC (UniProt Q01831), inactive: 0.264.
For the target ZDHHC12 isoform 3 (UniProt Q96GR4), the log2 fold change was inactive: -0.24.
Regarding ZC2HC1A (UniProt Q96GY0), the log2 fold change is inactive: 0.005.
Same read-out and setting: to ZDHHC16 (UniProt Q969W1) belongs inactive: -0.139; to YIF1A (UniProt O95070), inactive: 0.217; to ZFX isoform 3 (UniProt P17010), inactive: -0.075.
Still for that read-out and setting: the result for ZBTB7B isoform 2 (UniProt O15156) reads inactive: -0.082; that for ZC3H13 (UniProt Q5T200), inactive: -0.236; that for YES1 (UniProt P07947), inactive: -0.159.
The same measure, in the same setting: to ZC3H11A (UniProt O75152) belongs inactive: 0.057.
With ZCCHC17 (UniProt Q9NP64), the log2 fold change was inactive: -0.396.
The same measure, in the same setting: the result for XRN1 (UniProt Q8IZH2) reads inactive: 0.092.

Compound in a further assay: CCCS(=O)(=O)Nc1ccc(F)c(C(=O)c2c[nH]c3ncc(Cl)cc23)c1F
The description is as above. An outline of the steps: as §1
Regarding ZMYM2 (UniProt Q9UBW7), the log2 fold change was inactive: 0.057.
The same measure, in the same setting: the result for XPA (UniProt P23025) reads inactive: 0.134; that for ZBTB3 (UniProt Q9H5J0), inactive: 0.197.
The same measure, in the same setting: the result for ZDHHC7 isoform 2 (UniProt Q9NXF8) reads inactive: 0.014.
The same measure, in the same setting: to ZMYND8 isoform 19 (UniProt Q9ULU4) belongs inactive: 0.067.
With XPC (UniProt Q01831), the log2 fold change was inactive: 0.06.
As for ZDHHC12 isoform 3 (UniProt Q96GR4), the log2 fold change was inactive: -0.008.
Still for that read-out and setting: the result for ZFYVE28 (UniProt Q9HCC9) reads inactive: 0.052; that for ZC2HC1A (UniProt Q96GY0), inactive: -0.112; that for YIF1A (UniProt O95070), inactive: -0.116.
YWHAZ (UniProt E7ESK7): the log2 fold change is inactive: -0.05.
Still for that read-out and setting: the result for ZDHHC6 (UniProt Q9H6R6) reads inactive: -0.048; that for ZC3H13 (UniProt Q5T200), inactive: -0.432; that for XRCC2 (UniProt O43543), inactive: 0.01.
On the same count and under the same terms, the result for YES1 (UniProt P07947) reads inactive: -0.217; that for ZC3H11A (UniProt O75152), inactive: 0.065.

Compound in the next assay: CCCc1cc(C)[nH]c(=O)c1CNC(=O)c1cc(-c2ccnc(N3CCN(C)CC3)c2)cc2c1cnn2C(C)C
The description is as above. An outline of the steps: as §1
For ZBTB3 (UniProt Q9H5J0), the log2 fold change is inactive: -0.034.
On the same count and under the same terms, the result for ZBTB17 isoform 2 (UniProt Q13105) reads inactive: -0.158; that for ZBTB14 (UniProt O43829), inactive: -0.034; that for ZFP36L2 (UniProt P47974), inactive: -0.036.
As to XP32 (UniProt Q5T750), the log2 fold change is inactive: 0.218.
Same read-out and setting: to ZC2HC1A (UniProt Q96GY0) belongs inactive: 0.06.
Regarding YIF1A (UniProt O95070), the log2 fold change was inactive: -0.017.
Regarding YWHAZ (UniProt E7ESK7), the log2 fold change was inactive: -0.393.
As for YTHDC2 (UniProt Q9H6S0), the log2 fold change was inactive: 0.008.
In the case of ZC3H13 (UniProt Q5T200), the log2 fold change is inactive: -0.262.
With XRCC2 (UniProt O43543), the log2 fold change was inactive: 0.063.
On the same count and under the same terms, the result for YES1 (UniProt P07947) reads inactive: 0.075.
Consider ZC3H11A (UniProt O75152), for which the log2 fold change is inactive: 0.163.
ZFPM2 (UniProt Q8WW38): the log2 fold change was inactive: 0.045.
Still for that read-out and setting: to XRN1 (UniProt Q8IZH2) belongs inactive: -0.212.

Compound in another assay: CCN(CC)Cc1ccc2cc(COC(=O)Nc3ccc(C(=O)NO)cc3)ccc2c1 [givinostat]
The description is as above. An outline of the steps:
as §1
As to YTHDF1 (UniProt Q9BYJ9), the log2 fold change was inactive: 0.137.
Regarding ZFYVE21 isoform 2 (UniProt Q9BQ24), the log2 fold change is inactive: 0.093.
Still for that read-out and setting: the result for YBEY (UniProt P58557) reads inactive: -0.349; that for ZBTB3 (UniProt Q9H5J0), inactive: -0.097.
On the same count and under the same terms, to ZDHHC7 isoform 2 (UniProt Q9NXF8) belongs inactive: 0.011; to ZBTB17 isoform 2 (UniProt Q13105), inactive: -0.011.
On to ZMYND8 isoform 19 (UniProt Q9ULU4), for which the log2 fold change is inactive: 0.126.
The same measure, in the same setting: the result for ZBTB14 (UniProt O43829) reads inactive: -0.02; that for XPC (UniProt Q01831), inactive: 0.068.
In the case of XYLB (UniProt O75191), the log2 fold change was inactive: 0.19.
As for ZFP36L2 (UniProt P47974), the log2 fold change was inactive: 0.149.
In the case of ZFYVE28 (UniProt Q9HCC9), the log2 fold change was inactive: -0.001.
On the same count and under the same terms, to ZC2HC1A (UniProt Q96GY0) belongs inactive: 0.035; to ZDHHC16 (UniProt Q969W1), inactive: -0.095; to YIF1A (UniProt O95070), inactive: 0.054.
As to ZC3H13 (UniProt Q5T200), the log2 fold change was inactive: -0.039.
Still for that read-out and setting: to XRCC2 (UniProt O43543) belongs inactive: 0.098; to YES1 (UniProt P07947), inactive: 0.016; to ZNF22 (UniProt P17026), inactive: 0.175.

Compound in the next assay: CCN(CCCOc1ccc2c(Nc3cc(CC(=O)Nc4cccc(F)c4)[nH]n3)ncnc2c1)CCOP(=O)(O)O [barasertib]
Described as above. In outline:
as §1
For ZMYM2 (UniProt Q9UBW7), the log2 fold change is inactive: 0.076.
Take YTHDF1 (UniProt Q9BYJ9): the log2 fold change was inactive: 0.335.
Same read-out and setting: to ZBTB3 (UniProt Q9H5J0) belongs inactive: -0.041.
As to ZBTB17 isoform 2 (UniProt Q13105), the log2 fold change is inactive: -0.048.
With ZMYND8 isoform 19 (UniProt Q9ULU4), the log2 fold change is inactive: -0.009.
For ZBTB14 (UniProt O43829), the log2 fold change is inactive: 0.258.
The same measure, in the same setting: to XP32 (UniProt Q5T750) belongs inactive: 0.256; to ZFYVE28 (UniProt Q9HCC9), inactive: 0.053; to ZC2HC1A (UniProt Q96GY0), inactive: -0.027.
Take ZNF225 (UniProt Q9UK10): the log2 fold change was inactive: -0.066.
As for YIF1A (UniProt O95070), the log2 fold change was inactive: 0.05.
Same read-out and setting: to YWHAZ (UniProt E7ESK7) belongs inactive: 0.114; to ZDHHC8 isoform 3 (UniProt Q9ULC8), inactive: 0.028.
The same measure, in the same setting: the result for ZC3H13 (UniProt Q5T200) reads inactive: 0.072; that for YES1 (UniProt P07947), inactive: -0.006.
For ZC3H11A (UniProt O75152), the log2 fold change was inactive: 0.071.
With XRN1 (UniProt Q8IZH2), the log2 fold change was inactive: 0.287.
In the case of YIPF2 (UniProt Q9BWQ6), the log2 fold change is inactive: 0.105.
